Assay results: paper PMC7177946, “Effect of Ferulic Acid, a Phenolic Inducer of Fungal Laccase, on 26S Proteasome Activities In Vitro” (International Journal of Molecular Sciences, 2020)

Tested on: T1, 26S proteasome (T. versicolor), chymotrypsin-like (CHTL) site, β5 subunit
T1 construct: gene PRE2; native 26S complex (20S core plus one or two 19S caps); beta subunits mature with N-terminal Thr; with Proteasome subunit beta type-7 (beta2); Proteasome subunit beta type-6 (beta1)
Assay: fluorogenic peptidase assay, Suc-LLVY-AMC
Format: biochemical, Trametes versicolor
Conditions: 1000 µM; 30 min preincubation; 100 µM Suc-LLVY-AMC, 2 mM ATP, 5 mM MgCl2, pH 8.0, 37 °C; partially purified native 26S (1-step)

Structure (SMILES)	Remaining CHTL Activity ^1 (% of Control)
O=C(O)c1ccc(O)c(O)c1 [protocatechuic acid, 3,4-dihydroxybenzoic acid]	103
COc1cc(C(=O)O)cc(OC)c1O [syringic acid, 3,5-dimethoxy-4-hydroxybenzoic acid]	102
COc1cc(C(=O)O)ccc1O [vanillic acid, 4-hydroxy-3-methoxybenzoic acid]	100
